PubChem BioAssay AID1259254 – NCATS | 2017
Here is one part, drawn at random, of about 59,000 reagents. Over the whole deposit, about 1,550 (2.6%) were called active. 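G2 share is only a proxy for re-replication; each gene was hit by three separate siRNAs, and active genes were retested.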 A number with no mark means an inactive call. The numbers tell different reagents against one gene apart. Not all columns of the deposit are shown. The record does not give: the amount of reagent.

Test: 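Genome-wide screen for genes that prevent DNA re-replication in cancer cells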 (primary screen)
Cell system: human HCT116 colorectal cancer cells
Reagent: single siRNA against human genes
Timing: 3 days
Read-out: 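Nuclei stained with Hoechst and imaged; cell-cycle phase assigned by DNA content; G2 share scaled per plate, non-targeting siRNA 0%, GMNN siRNA 100%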
Reading the numbers: G2 robust z-score and G2 cells, % of GMNN control: higher = more G2 cells, more excess DNA replication
Hit rule: 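An siRNA counts as active if its G2 robust z-score lies at least 5 MADs above the screen median; here such calls match roughly 38% of GMNN control or more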

SLC6A8 #1 gave G2 robust z-score 0.263; G2 cells, % of GMNN control 4.82.
SLC6A8 #2 scored G2 robust z-score -0.517; G2 cells, % of GMNN control -0.672.
After knock-down of SLC6A8 #3, the screen gave G2 robust z-score 2.15; G2 cells, % of GMNN control 18.1.
With knock-down of BICRAL #1, the record shows G2 robust z-score 0.656; G2 cells, % of GMNN control 7.58.
For BICRAL #2 the deposit lists G2 robust z-score 0.499; G2 cells, % of GMNN control 6.48.
BICRAL #3 scored G2 robust z-score 0.278; G2 cells, % of GMNN control 4.93.
Silencing of OR4A47 #1 came out at: G2 robust z-score 0.00219; G2 cells, % of GMNN control 2.98.
OR4A47 #2 gave G2 robust z-score 0.8; G2 cells, % of GMNN control 8.6.
OR4A47 #3 showed G2 robust z-score -0.0957; G2 cells, % of GMNN control 2.29.
For HTR2C #1, the entry reads G2 robust z-score -1.11; G2 cells, % of GMNN control -4.86.
With knock-down of HTR2C #2, the record shows G2 robust z-score -1.22; G2 cells, % of GMNN control -5.63.
Depletion of HTR2C #3 came out at: G2 robust z-score 0.615; G2 cells, % of GMNN control 7.29.
With knock-down of PSRC1 #1 the results were G2 robust z-score 4.89; G2 cells, % of GMNN control 37.4.
For PSRC1 #2 the deposit lists G2 robust z-score -0.873; G2 cells, % of GMNN control -3.18.
PSRC1 #3 showed G2 robust z-score 0.0776; G2 cells, % of GMNN control 3.51.
After knock-down of ZNF154 #1, the record shows G2 robust z-score -0.322; G2 cells, % of GMNN control 0.701.
Against ZNF154 #2, the entry reads G2 robust z-score -0.212; G2 cells, % of GMNN control 1.47.
Depletion of ZNF154 #3 resulted in: G2 robust z-score 0.225; G2 cells, % of GMNN control 4.55.

2 of these entries in another layout.
{"Gene": "PSRC1", "reagent no.": 3, "G2 robust z-score": 0.0776, "G2 cells, % of GMNN control": 3.51}
{"Gene": "ZNF154", "reagent no.": 1, "G2 robust z-score": -0.322, "G2 cells, % of GMNN control": 0.701}
